Results from the supplement of paper PMC11732987, “Enantioselective OTUD7B fragment discovery through chemoproteomics screening and high-throughput optimisation” (Communications Chemistry, 2025).
The list shows a part of the results. The data scatter; read single values as rough.

What follows are compounds tested against T1, SH3RF1 C700 (UniProt Q7Z6J0) (assay: log2 mean competition ratio of IA-DTB cysteine labelling (DMSO/compound) (log2 ratio); higher = stronger cysteine engagement by compound). Settings: 50 µM; treatment time: 4 h; cell line lysate: HEK293T.
T1 sequence (whole entry): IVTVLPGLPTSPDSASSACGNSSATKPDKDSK
Description: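 IA-DTB competitive cysteine chemoproteomics in HEK293T RIPA lysate. Lysates were treated with compound 29 or 30 at 50 or 200 µM for 4 h, then IA-DTB (500 µM, 1 h), trypsin-digested, NeutrAvidin-enriched and analysed by diaPASEF. Competition ratio = intensity DMSO / intensity compound (n=4 treated, n=64 DMSO); binding: mean log2 CR ≥ 1 and p ≤ 0.05 plus QC filters. Target is the cysteine site.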
O=C(CCl)N[C@@H]1CCCc2ccccc21 was tested, and the “log2 mean competition ratio” value was -0.251.
With O=C(CCl)N[C@H]1CCCc2ccccc21 the “log2 mean competition ratio” value was -0.403.

Same assay, conditions: 200 µM; treatment time: 4 h; cell line lysate: HEK293T
With O=C(CCl)N[C@@H]1CCCc2ccccc21 the “log2 mean competition ratio” value was 0.0405.
In the case of O=C(CCl)N[C@H]1CCCc2ccccc21, the “log2 mean competition ratio” value is reported as 0.114.
